Laboratory results: publication PMC7212925
These are yes or no findings as the source states them, for the method shown. In cells and extracts the contact can be indirect. Some binding calls cover weakened binding; strength is not graded here. For some of these results: Sequences can lack the tags named with a protein. Values belong to the binder of their own block, whether it stands above or below them.

By UniProt entry, the sequences of proteins in these tests, tags left out. Residues count along the entry.
UniProt P30530, residues 26-894: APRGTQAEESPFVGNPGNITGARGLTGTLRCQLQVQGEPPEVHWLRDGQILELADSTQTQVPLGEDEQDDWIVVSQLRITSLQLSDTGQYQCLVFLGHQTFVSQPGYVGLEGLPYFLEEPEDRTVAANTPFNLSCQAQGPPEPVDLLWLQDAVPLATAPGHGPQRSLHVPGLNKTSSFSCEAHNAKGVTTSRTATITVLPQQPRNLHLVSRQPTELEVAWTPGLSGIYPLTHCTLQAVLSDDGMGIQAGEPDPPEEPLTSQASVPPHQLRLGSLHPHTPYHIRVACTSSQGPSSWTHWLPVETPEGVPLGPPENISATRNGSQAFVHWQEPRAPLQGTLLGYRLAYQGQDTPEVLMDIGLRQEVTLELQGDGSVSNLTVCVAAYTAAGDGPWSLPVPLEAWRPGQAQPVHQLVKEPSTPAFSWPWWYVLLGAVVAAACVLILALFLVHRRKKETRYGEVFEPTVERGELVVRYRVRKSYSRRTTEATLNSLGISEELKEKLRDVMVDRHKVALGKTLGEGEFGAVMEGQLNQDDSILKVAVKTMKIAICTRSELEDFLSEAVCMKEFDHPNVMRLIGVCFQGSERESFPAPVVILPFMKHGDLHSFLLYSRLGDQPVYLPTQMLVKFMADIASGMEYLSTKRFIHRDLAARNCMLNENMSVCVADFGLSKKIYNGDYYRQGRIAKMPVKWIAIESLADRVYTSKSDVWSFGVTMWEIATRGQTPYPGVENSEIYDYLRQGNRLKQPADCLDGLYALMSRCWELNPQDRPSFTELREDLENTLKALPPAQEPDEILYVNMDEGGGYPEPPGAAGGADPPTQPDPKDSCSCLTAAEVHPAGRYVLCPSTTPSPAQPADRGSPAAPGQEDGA

How the values were obtained:
[1] = molecular target: AXL C-terminally fused to LgBiT or SmBiT (NanoBiT construct) (human) (UniProt P30530); test: split reporter; NanoBiT complementation in live U87 cells, 48 h after transfection; partners C-terminally fused to LgBiT or SmBiT; no ligand; area under the curve of luminescence
[2] = molecular target: AXL C-terminally fused to LgBiT or SmBiT (NanoBiT construct) (human) (UniProt P30530); test: split reporter; NanoBiT competition in live U87 cells: LgBiT- and SmBiT-tagged AXL or EGFR with untagged competitors co-transfected from pIRES plasmids in excess (2X to 18X); ligand-induced dimerization signal read
[3] = molecular target: AXL, endogenous in U87-EGFRvIII-derived cells (human (endogenous in U87-EGFRvIII)) (UniProt P30530); test: proximity ligation; in situ PLA (DuoLink) with primary antibodies to AXL and LRIG1 on U87-EGFRvIII cells and on cells expressing sLRIG1; interaction foci counted

binding [1]: binds
B1: LRIG1 C-terminally fused to LgBiT or SmBiT (NanoBiT construct) (protein, UniProt Q96JA1 35-1093)
chain: AGPRAPCAAACTCAGDSLDCGGRGLAALPGDLPSWTRSLNLSYNKLSEIDPAGFEDLPNLQEVYLNNNELTAVPSLGAASSHVVSLFLQHNKIRSVEGSQLKAYLSLEVLDLSLNNITEVRNTCFPHGPPIKELNLAGNRIGTLELGAFDGLSRSLLTLRLSKNRITQLPVRAFKLPRLTQLDLNRNRIRLIEGLTFQGLNSLEVLKLQRNNISKLTDGAFWGLSKMHVLHLEYNSLVEVNSGSLYGLTALHQLHLSNNSIARIHRKGWSFCQKLHELVLSFNNLTRLDEESLAELSSLSVLRLSHNSISHIAEGAFKGLRSLRVLDLDHNEISGTIEDTSGAFSGLDSLSKLTLFGNKIKSVAKRAFSGLEGLEHLNLGGNAIRSVQFDAFVKMKNLKELHISSDSFLCDCQLKWLPPWLIGRMLQAFVTATCAHPESLKGQSIFSVPPESFVCDDFLKPQIITQPETTMAMVGKDIRFTCSAASSSSSPMTFAWKKDNEVLTNADMENFVHVHAQDGEVMEYTTILHLRQVTFGHEGRYQCVITNHFGSTYSHKARLTVNVLPSFTKTPHDITIRTTTMARLECAATGHPNPQIAWQKDGGTDFPAARERRMHVMPDDDVFFITDVKIDDAGVYSCTAQNSAGSISANATLTVLETPSLVVPLEDRVVSVGETVALQCKATGNPPPRITWFKGDRPLSLTERHHLTPDNQLLVVQNVVAEDAGRYTCEMSNTLGTERAHSQLSVLPAAGCRKDGTTVGIFTIAVVSSIVLTSLVWVCIIYQTRKKSEEYSVTNTDETVVPPDVPSYLSSQGTLSDRQETVVRTEGGPQANGHIESNGVCPRDASHFPEPDTHSVACRQPKLCAGSAYHKEPWKAMEKAEGTPGPHKMEHGGRVVCSDCNTEVDCYSRGQAFHPQPVSRDSAQPSAPNGPEPGGSDQEHSPHHQCSRTAAGSCPECQGSLYPSNHDRMLTAVKKKPMASLDGKGDSSWTLARLYHPDSTELQPASSLTSGSPERAEAQYLLVSNGHLPKACDASPESTPLTGQLPGKQRVPLLLAPKS

binding [2]: binds
B2: untagged full-length LRIG1 (pIRES competitor) (protein, UniProt Q96JA1 35-1093)
chain: B1 chain

binding [3]: binds
B3: soluble LRIG1 expressed in the U87-EGFRvIII-sLRIG1 cell line (domain or fragment, UniProt Q96JA1 35-779)
chain: AGPRAPCAAACTCAGDSLDCGGRGLAALPGDLPSWTRSLNLSYNKLSEIDPAGFEDLPNLQEVYLNNNELTAVPSLGAASSHVVSLFLQHNKIRSVEGSQLKAYLSLEVLDLSLNNITEVRNTCFPHGPPIKELNLAGNRIGTLELGAFDGLSRSLLTLRLSKNRITQLPVRAFKLPRLTQLDLNRNRIRLIEGLTFQGLNSLEVLKLQRNNISKLTDGAFWGLSKMHVLHLEYNSLVEVNSGSLYGLTALHQLHLSNNSIARIHRKGWSFCQKLHELVLSFNNLTRLDEESLAELSSLSVLRLSHNSISHIAEGAFKGLRSLRVLDLDHNEISGTIEDTSGAFSGLDSLSKLTLFGNKIKSVAKRAFSGLEGLEHLNLGGNAIRSVQFDAFVKMKNLKELHISSDSFLCDCQLKWLPPWLIGRMLQAFVTATCAHPESLKGQSIFSVPPESFVCDDFLKPQIITQPETTMAMVGKDIRFTCSAASSSSSPMTFAWKKDNEVLTNADMENFVHVHAQDGEVMEYTTILHLRQVTFGHEGRYQCVITNHFGSTYSHKARLTVNVLPSFTKTPHDITIRTTTMARLECAATGHPNPQIAWQKDGGTDFPAARERRMHVMPDDDVFFITDVKIDDAGVYSCTAQNSAGSISANATLTVLETPSLVVPLEDRVVSVGETVALQCKATGNPPPRITWFKGDRPLSLTERHHLTPDNQLLVVQNVVAEDAGRYTCEMSNTLGTERAHSQLS

binding [2]: binds
B4: untagged soluble LRIG1 (pIRES competitor) (domain or fragment, UniProt Q96JA1 35-779)
chain: B3 chain
